According to the supplement of paper PMC12819154, “High-throughput peptide-centric local stability assay extends protein–ligand identification to membrane proteins, tissues and bacteria” (Nature Structural & Molecular Biology, 2025):
The list shows a part of the results. Most entries show no effect beyond the scatter of the controls.

Chains of the proteins cited; added tags and fusions are not shown. Lines headed by an entry give the natural chain unless they say otherwise; changes in a name come on top.
UniProt O00233: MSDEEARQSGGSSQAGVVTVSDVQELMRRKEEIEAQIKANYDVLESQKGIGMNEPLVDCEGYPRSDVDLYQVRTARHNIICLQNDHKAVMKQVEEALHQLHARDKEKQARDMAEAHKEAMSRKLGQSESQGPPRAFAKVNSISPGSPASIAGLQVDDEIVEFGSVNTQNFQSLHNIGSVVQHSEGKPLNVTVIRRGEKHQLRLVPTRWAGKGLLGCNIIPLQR
UniProt O15049: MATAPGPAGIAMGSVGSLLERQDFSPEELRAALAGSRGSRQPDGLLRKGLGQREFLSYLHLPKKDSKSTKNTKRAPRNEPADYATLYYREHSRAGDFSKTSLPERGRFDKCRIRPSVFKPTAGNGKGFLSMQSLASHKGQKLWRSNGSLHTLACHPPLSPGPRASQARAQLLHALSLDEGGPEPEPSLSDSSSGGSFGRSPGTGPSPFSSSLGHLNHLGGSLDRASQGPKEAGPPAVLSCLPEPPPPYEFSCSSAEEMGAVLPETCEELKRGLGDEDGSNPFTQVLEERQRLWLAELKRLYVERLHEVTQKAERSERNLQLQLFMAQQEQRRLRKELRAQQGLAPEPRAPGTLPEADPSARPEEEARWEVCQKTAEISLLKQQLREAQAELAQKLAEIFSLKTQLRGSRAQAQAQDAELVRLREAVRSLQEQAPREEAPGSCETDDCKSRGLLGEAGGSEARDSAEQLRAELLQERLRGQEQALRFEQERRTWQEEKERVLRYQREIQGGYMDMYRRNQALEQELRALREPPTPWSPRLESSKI
UniProt O15126: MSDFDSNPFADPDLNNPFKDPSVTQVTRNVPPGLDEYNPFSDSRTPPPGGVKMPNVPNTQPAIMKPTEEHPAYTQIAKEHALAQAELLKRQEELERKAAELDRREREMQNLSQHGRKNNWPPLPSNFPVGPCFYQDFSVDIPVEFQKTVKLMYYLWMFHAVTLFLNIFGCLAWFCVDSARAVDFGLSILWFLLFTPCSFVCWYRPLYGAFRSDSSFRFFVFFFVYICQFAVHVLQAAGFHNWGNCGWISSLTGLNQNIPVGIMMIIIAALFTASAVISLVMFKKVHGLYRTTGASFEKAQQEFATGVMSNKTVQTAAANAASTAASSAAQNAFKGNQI
UniProt L0R819, whole entry: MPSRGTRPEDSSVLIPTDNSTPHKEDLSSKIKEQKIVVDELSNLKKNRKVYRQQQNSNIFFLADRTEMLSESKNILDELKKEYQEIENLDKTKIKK
UniProt O14709: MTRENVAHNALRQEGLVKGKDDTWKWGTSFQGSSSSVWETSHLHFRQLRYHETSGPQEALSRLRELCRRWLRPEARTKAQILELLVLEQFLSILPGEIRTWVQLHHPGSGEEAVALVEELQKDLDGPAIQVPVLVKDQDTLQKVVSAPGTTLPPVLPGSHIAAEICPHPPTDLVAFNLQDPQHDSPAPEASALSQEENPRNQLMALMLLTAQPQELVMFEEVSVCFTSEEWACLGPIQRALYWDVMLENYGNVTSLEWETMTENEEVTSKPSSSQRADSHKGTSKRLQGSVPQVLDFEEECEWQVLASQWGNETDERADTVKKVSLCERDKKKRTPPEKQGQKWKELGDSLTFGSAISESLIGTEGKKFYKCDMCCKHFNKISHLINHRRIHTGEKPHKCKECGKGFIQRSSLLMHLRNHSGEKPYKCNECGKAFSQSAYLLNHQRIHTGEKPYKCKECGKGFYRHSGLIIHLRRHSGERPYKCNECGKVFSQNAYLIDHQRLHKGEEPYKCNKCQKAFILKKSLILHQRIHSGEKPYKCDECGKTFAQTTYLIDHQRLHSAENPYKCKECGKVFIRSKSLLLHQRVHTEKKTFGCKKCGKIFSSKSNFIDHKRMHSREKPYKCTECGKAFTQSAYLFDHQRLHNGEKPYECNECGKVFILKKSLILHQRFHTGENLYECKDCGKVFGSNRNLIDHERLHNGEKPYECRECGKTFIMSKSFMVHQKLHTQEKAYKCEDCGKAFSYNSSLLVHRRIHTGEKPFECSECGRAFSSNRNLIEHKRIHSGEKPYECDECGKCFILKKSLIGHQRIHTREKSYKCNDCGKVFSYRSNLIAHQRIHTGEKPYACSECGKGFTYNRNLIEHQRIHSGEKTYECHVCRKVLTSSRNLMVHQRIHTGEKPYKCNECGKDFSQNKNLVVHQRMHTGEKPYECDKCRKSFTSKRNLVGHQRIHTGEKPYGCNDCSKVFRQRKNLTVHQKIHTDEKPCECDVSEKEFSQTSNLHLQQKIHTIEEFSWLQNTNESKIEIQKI
UniProt O00186: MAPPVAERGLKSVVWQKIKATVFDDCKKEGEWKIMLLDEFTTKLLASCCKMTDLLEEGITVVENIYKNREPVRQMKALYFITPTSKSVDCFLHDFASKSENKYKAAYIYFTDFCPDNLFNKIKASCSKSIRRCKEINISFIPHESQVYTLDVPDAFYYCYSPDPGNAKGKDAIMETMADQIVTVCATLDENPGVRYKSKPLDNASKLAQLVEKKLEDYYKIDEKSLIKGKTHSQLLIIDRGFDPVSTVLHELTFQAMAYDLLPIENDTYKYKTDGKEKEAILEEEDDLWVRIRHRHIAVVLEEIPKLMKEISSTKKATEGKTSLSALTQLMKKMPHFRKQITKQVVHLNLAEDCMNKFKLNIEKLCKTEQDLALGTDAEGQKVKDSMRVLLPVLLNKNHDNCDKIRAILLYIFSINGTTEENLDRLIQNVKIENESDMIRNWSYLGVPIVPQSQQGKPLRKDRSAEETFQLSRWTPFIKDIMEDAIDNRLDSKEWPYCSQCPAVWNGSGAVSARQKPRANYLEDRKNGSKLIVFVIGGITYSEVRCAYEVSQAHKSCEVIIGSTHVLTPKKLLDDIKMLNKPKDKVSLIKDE
UniProt O14745: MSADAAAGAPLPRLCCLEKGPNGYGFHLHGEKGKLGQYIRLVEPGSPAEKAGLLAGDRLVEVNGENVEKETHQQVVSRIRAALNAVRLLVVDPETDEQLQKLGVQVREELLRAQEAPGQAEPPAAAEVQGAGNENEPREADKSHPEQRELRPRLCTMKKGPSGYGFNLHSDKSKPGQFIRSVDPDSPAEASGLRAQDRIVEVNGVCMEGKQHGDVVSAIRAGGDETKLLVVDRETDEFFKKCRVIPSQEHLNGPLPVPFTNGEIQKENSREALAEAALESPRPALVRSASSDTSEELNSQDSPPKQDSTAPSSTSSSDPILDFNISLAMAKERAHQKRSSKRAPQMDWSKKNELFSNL
UniProt O14604: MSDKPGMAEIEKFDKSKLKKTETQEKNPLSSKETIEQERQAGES
UniProt O15127: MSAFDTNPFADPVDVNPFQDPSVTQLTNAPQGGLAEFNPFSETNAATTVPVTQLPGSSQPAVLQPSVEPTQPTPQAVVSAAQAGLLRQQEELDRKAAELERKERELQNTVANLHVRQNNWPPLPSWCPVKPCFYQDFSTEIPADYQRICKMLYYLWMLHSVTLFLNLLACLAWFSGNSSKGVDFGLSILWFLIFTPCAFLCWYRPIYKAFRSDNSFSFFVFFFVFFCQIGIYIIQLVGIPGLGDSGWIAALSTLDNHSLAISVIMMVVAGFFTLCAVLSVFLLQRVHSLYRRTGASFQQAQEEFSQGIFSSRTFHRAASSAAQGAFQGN
UniProt B1AK53: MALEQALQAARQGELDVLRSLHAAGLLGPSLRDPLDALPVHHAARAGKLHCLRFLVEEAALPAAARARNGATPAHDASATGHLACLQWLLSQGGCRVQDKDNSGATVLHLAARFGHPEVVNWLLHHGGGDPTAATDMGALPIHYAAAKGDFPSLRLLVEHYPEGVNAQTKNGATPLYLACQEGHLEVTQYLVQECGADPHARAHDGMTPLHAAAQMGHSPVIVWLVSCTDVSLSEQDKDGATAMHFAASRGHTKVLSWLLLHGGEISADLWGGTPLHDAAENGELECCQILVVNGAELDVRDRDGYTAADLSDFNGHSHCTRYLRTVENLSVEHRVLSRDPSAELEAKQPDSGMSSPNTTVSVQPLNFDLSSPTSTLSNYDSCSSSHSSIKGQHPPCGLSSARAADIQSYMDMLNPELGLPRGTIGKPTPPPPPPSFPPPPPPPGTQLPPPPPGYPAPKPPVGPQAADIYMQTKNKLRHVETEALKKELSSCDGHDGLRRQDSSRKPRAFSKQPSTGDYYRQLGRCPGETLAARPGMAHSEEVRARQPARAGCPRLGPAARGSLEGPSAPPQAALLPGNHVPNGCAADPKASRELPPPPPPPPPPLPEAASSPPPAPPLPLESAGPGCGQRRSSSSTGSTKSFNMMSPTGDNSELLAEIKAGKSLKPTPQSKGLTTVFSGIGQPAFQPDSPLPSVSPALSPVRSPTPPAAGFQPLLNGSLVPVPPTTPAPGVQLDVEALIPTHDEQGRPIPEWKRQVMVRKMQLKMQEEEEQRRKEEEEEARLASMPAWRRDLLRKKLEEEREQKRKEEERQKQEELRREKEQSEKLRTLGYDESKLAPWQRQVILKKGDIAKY
UniProt O15085: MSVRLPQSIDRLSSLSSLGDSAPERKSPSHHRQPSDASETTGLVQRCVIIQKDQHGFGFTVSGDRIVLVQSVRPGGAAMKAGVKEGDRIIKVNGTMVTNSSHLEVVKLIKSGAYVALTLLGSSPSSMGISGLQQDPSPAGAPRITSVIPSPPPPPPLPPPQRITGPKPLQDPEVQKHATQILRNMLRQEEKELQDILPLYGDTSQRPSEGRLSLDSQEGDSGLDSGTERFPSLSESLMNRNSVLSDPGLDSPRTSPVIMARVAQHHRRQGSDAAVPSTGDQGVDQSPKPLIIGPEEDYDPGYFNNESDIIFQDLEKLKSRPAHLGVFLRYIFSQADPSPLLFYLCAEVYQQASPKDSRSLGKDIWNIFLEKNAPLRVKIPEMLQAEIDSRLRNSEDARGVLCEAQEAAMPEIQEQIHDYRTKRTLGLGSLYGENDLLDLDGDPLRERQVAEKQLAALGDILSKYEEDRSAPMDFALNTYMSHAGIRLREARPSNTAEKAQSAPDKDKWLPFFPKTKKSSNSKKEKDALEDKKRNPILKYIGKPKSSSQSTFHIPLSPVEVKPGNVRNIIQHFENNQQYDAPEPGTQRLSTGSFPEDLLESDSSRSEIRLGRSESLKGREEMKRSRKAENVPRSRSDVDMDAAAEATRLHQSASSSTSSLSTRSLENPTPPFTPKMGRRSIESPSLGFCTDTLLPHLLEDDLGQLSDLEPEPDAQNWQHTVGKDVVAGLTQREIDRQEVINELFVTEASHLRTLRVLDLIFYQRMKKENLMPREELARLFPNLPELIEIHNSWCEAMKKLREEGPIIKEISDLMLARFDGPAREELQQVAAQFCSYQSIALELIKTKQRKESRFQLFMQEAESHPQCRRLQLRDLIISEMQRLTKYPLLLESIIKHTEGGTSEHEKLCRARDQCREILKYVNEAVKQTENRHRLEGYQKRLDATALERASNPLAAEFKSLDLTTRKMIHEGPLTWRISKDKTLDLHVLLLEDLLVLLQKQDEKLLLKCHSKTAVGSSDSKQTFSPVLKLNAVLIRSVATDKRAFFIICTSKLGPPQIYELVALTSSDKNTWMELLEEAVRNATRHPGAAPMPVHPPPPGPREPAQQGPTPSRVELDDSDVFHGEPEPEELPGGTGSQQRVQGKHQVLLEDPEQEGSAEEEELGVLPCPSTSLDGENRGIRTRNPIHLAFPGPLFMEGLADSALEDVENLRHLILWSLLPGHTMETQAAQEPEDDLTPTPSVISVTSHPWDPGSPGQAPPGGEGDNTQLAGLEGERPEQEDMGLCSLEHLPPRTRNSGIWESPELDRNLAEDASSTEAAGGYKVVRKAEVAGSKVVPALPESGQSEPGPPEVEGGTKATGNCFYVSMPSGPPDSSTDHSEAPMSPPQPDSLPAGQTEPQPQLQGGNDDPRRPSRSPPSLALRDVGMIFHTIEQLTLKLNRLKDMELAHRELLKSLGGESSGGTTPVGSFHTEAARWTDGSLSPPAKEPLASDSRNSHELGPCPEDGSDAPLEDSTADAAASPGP
UniProt O15247: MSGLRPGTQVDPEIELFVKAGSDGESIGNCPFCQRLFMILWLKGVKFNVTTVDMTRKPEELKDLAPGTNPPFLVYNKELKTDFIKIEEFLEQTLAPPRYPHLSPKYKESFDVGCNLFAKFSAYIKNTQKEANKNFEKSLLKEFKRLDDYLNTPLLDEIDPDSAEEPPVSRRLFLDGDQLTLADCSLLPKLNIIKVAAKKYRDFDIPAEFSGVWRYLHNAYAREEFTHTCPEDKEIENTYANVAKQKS

compound: CN[C@@H]1C[C@H]2O[C@@](C)([C@@H]1OC)n1c3ccccc3c3c4c(c5c6ccccc6n2c5c31)C(=O)NC4 [staurosporine]; experiment: log2 fold change of tryptic peptide abundance, ligand vs vehicle (limited proteolysis) (log2 ratio); higher = more trypsin-susceptible (destabilized); details: ligand concentration: 20 uM; sample: K562 cleared lysate; digestion: 4 min, 22 C (HT-PELSA RT4min, Orbitrap Astral)

Which log2 fold change does the source give for “EIF3F (peptide sequence: NMYELHKK, peptide start residue: 155) (UniProt O00303)” here?
Its log2 fold change is 0.28.

Which log2 fold change does the source give for “PSMD9 (peptide sequence: DMAEAHKEAMSR, peptide start residue: 111) (UniProt O00233)” here?
The log2 fold change was 0.329.

How did the log2 fold change turn out when “NDUFAB1 (peptide sequence: LMCPQEIVDYIADKK, peptide start residue: 138) (UniProt O14561)” was run?
The log2 fold change was 0.557.

“N4BP3 (peptide sequence: APGTLPEADPSARPEEEAR, peptide start residue: 349) (UniProt O15049)” was tested. Which log2 fold change did it give?
The log2 fold change was 0.302.

How did the log2 fold change turn out when “ARPC1B (peptide sequence: ERFQNLDKK, peptide start residue: 300) (UniProt O15143)” was run?
Its log2 fold change is 0.259.

For “HIP1 (peptide sequence: ELEDSLER, peptide start residue: 512) (UniProt O00291)”, which log2 fold change is on record?
Its log2 fold change is -0.22.

“SCAMP1 (peptide sequence: EHALAQAELLK, peptide start residue: 79) (UniProt O15126)” was tested. Which log2 fold change did it give?
Its log2 fold change is -0.0296.

With “UniProt L0R819 (peptide sequence: IVVDELSNLKK, peptide start residue: 36)” as the target, how does the log2 fold change read?
Its log2 fold change is 0.172.

Which log2 fold change does the source give for “UniProt O14709 (peptide sequence: IHTDEKPCECDVSEK, peptide start residue: 979)” here?
Its log2 fold change is -0.279.

With “STXBP3 (peptide sequence: QVVHLNLAEDCMNKFK, peptide start residue: 344) (UniProt O00186)” as the target, how does the log2 fold change read?
The log2 fold change was 0.468.

With “SLC9A3R1 (peptide sequence: LLVVDRETDEFFK, peptide start residue: 228) (UniProt O14745)” as the target, how does the log2 fold change read?
Its log2 fold change is 0.309.

“LBA1 (peptide sequence: ALESEKDER, peptide start residue: 2320) (UniProt O15050)” was tested. Which log2 fold change did it give?
Its log2 fold change is 0.654.

How did the log2 fold change turn out when “UniProt O14604 (peptide sequence: LKKTETQEK, peptide start residue: 18)” was run?
The log2 fold change was 0.12.

“SCAMP2 (peptide sequence: QQEELDRK, peptide start residue: 88) (UniProt O15127)” was tested. Which log2 fold change did it give?
Its log2 fold change is 0.315.

How did the log2 fold change turn out when “ESPN (peptide sequence: ALEQALQAAR, peptide start residue: 2) (UniProt B1AK53)” was run?
Its log2 fold change is 0.36.

Which log2 fold change does the source give for “ACOT8 (peptide sequence: LPVLYQVER, peptide start residue: 92) (UniProt O14734)” here?
The log2 fold change was -0.0247.

Which log2 fold change does the source give for “ADAM10 (peptide sequence: ESYQMGHMR, peptide start residue: 739) (UniProt O14672)” here?
Its log2 fold change is 0.853.

“ARHGEF11 (peptide sequence: EISDLMLAR, peptide start residue: 808) (UniProt O15085)” was tested. Which log2 fold change did it give?
Its log2 fold change is 0.641.

How did the log2 fold change turn out when “C2CD2L (peptide sequence: QKEAGLSQSHDDLSNATATPSVR, peptide start residue: 654) (UniProt O14523)” was run?
The log2 fold change was -0.612.

How did the log2 fold change turn out when “CLIC2 (peptide sequence: YKESFDVGCNLFAK, peptide start residue: 106) (UniProt O15247)” was run?
The log2 fold change was 0.271.

Which log2 fold change does the source give for “KPNA3 (peptide sequence: GRDVETMR, peptide start residue: 19) (UniProt O00505)” here?
The log2 fold change was 0.444.

“EIF3H (peptide sequence: EKDFSPEALKK, peptide start residue: 179) (UniProt O15372)” was tested. Which log2 fold change did it give?
Its log2 fold change is 0.25.

With “FPGT (peptide sequence: FLHKPSIEK, peptide start residue: 240) (UniProt O14772)” as the target, how does the log2 fold change read?
Its log2 fold change is 0.143.

“GNPAT (peptide sequence: CYTPLVYK, peptide start residue: 54) (UniProt O15228)” was tested. Which log2 fold change did it give?
The log2 fold change was -0.383.

For “TRDMT1 (peptide sequence: VLELYSGVGGMHHALR, peptide start residue: 6) (UniProt O14717)”, which log2 fold change is on record?
Its log2 fold change is 0.465.

“KIF2A (peptide sequence: NKPHTPFR, peptide start residue: 498) (UniProt O00139)” was tested. Which log2 fold change did it give?
The log2 fold change was 0.28.

Which log2 fold change does the source give for “UniProt B7Z6K7 (peptide sequence: QSIYIQR, peptide start residue: 68)” here?
The log2 fold change was -0.00528.

Which log2 fold change does the source give for “HGS (peptide sequence: ESDAMFAAER, peptide start residue: 147) (UniProt O14964)” here?
Its log2 fold change is 0.242.

With “POLR3G (peptide sequence: VYKEEWIPDWR, peptide start residue: 94) (UniProt O15318)” as the target, how does the log2 fold change read?
The log2 fold change was -0.177.

For “RFXANK (peptide sequence: VQQVIENHILK, peptide start residue: 238) (UniProt O14593)”, which log2 fold change is on record?
Its log2 fold change is 0.182.

For “PHYH (peptide sequence: SEYAPSEK, peptide start residue: 109) (UniProt O14832)”, which log2 fold change is on record?
The log2 fold change was 0.104.

How did the log2 fold change turn out when “PPM1G (peptide sequence: NLPPEEQMISALPDIK, peptide start residue: 410) (UniProt O15355)” was run?
The log2 fold change was 0.209.

“ARHGEF10 (peptide sequence: ESWVNSLQMAK, peptide start residue: 841) (UniProt O15013)” was tested. Which log2 fold change did it give?
Its log2 fold change is -0.628.

With “UniProt O14972 (peptide sequence: SVELQLVR, peptide start residue: 208)” as the target, how does the log2 fold change read?
The log2 fold change was -0.224.

Which log2 fold change does the source give for “UniProt O14771 (peptide sequence: AALGPVVGAR, peptide start residue: 288)” here?
The log2 fold change was -0.237.

With “FANCG (peptide sequence: DTYFHLLQTLK, peptide start residue: 549) (UniProt O15287)” as the target, how does the log2 fold change read?
Its log2 fold change is 0.388.
